Data reported in the supplement of paper PMC3334620.
The full ranking holds about 33,000 sequences; the median of “E-score (-0.5 to 0.5)” is about -0.015, and the highest 2% start at about 0.3. Some of the results follow.

biological target: T1, Abf1 (UniProt P14164); experiment: PBM E-score (8-mer binding enrichment) (E-score (-0.5 to 0.5)); higher = stronger / more preferred TF binding; conditions: protein concentration: 200 nM; construct: GST-full length
T1 sequence: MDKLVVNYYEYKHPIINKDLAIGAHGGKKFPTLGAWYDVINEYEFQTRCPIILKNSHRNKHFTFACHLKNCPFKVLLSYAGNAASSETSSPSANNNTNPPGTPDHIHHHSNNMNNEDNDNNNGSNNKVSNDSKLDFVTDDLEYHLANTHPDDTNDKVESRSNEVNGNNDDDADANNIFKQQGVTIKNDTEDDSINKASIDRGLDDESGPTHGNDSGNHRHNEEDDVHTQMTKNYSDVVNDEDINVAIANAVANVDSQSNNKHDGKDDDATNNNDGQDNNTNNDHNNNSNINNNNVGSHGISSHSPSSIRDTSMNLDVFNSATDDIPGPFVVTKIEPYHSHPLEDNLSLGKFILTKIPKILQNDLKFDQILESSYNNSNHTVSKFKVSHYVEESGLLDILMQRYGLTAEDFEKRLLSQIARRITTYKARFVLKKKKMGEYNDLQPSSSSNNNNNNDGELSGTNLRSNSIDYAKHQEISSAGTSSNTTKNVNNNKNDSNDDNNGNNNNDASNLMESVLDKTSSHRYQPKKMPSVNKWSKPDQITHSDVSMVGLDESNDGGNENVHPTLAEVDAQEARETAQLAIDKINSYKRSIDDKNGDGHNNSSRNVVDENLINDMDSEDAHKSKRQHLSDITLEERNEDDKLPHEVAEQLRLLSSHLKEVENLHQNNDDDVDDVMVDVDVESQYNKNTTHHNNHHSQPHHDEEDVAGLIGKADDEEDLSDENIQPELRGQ
Method in brief: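 Yeast transcription factors, full-length or as DNA-binding domains, were expressed with a GST tag using PURExpress in vitro transcription/translation. At about 100-200 nM they were applied to universal all-10-mer Agilent arrays, double-stranded by primer extension on fresh or once-stripped slides. Fluorescent anti-GST detected bound protein, and masliner normalised the scans. E-scores for ungapped eight-base words, pooled with reverse complements, came from the Universal PBM Analysis Suite.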

Sequence	PBM E-score
ACTGGTCT	-0.176
CGCAGTTA	-0.111
AATAAGCC	-0.0497
AGCGATGA	0.252
ATGAGAAA	0.179
TAAGACGA	0.231
CAGGTTTA	-0.233
ACCTAGGT	-0.126
CCCGCACG	-0.00505
CCGCTGAC	-0.0211
AGTGAAAA	-0.0609
CAGATATC	0.195
ACAAAGTC	0.0656
ACGGTGCC	0.161
ACTAGACT	-0.0609
AGTGTCAA	-0.0321
CGGGACCG	-0.027
GAATCACC	0.142
GTATCGCA	-0.0276
ATCCCAAA	0.0264
TCAATCGA	0.132
AGACGCCT	-0.22
AAAGTAGT	0.0771
CATTAGGG	-0.219
GATTACCA	-0.00189

4 entries from above, field by field.
CGCAGTTA
  PBM E-score = -0.111
CAGGTTTA
  PBM E-score = -0.233
ACCTAGGT
  PBM E-score = -0.126
CCGCTGAC
  PBM E-score = -0.0211

Additional results follow:

Sequence	PBM E-score
ACGTAGTG	-0.118
AGAAACAG	-0.0499
CAGAGTGG	-0.103
AACTACTA	0.122
GCGTCAGA	0.0352
GCCGATTA	0.0337
ACATCACA	0.183
CCTACTAC	-0.0898
CCAGGCCC	-0.219
ATTGCCCC	-0.0607
ATGAGTAC	0.18
CCTAGGTC	-0.0415
AACTTTTA	0.196
CCTCGTAC	0.273
TAACTGGA	-0.0583
GCCGTGCA	0.223
GGCCTACC	-0.111
CTGACAAG	0.0444
GGAACCCC	-0.268
CTGTCAAG	-0.181
GCTTTACC	-0.124
CCTCAAAA	-0.0943
AGGCCAGG	-0.0593
CTAATATA	0.104
AAGACGCC	0.0231

Sequence	PBM E-score
ATCAAAAG	0.0504
CCAGTAAG	-0.103
GCGCAGCA	-0.0858
GCTCCTAC	0.00267
ATGACTAC	0.191
CTAAGCGA	-0.0187
GGTACGGA	0.13
ACTGCGAA	-0.0387
AGGGTAGA	-0.105
AGCTAGGC	-0.186
ACGTCCCA	-0.035
CATGTCGC	0.0807
GGACGGAA	-0.0669
ACAAGATA	0.117
CGCCAACG	-0.107
AGCCCCCG	-0.256
GGTTGCCA	-0.195
GCAGCGAC	-0.147
CCCTTCTA	-0.212
ACTGGCGC	-0.0358
ACTCTGAT	0.043
CGCGGACG	0.174
GGCACAGA	-0.197
AGCCGCCT	-0.214
AGCGTAAG	-0.145

Sequence	PBM E-score
CAGCCTAG	-0.228
AGGACCAG	-0.0993
ATCACGAG	0.2
AAGCAAAT	0.0514
ACGCTTTG	0.102
GCTATCCC	-0.281
CTGGTAAA	-0.16
ATCGTTGC	0.116
ATTGAACG	0.223
AGGTGAAT	0.0397
ACATCCAG	-0.0483
CACGACGG	0.356
CCGAAAGG	0.0609
CGATAGCC	0.104
CCACCTCG	-0.237
ACTGCCTA	0.0517
AAAAGTAA	0.208
CTCGTATA	0.241
CCTGTTCG	-0.211
TGTATGAA	-0.0411
GGGATTCA	0.0595
AACTTCAT	-0.0877
TAACGTCA	0.262
CTGGGGCA	-0.0646
AGAACCCC	-0.221

Sequence	PBM E-score
GTAAACGA	0.252
GTGACTGA	0.198
AACCGGCC	-0.068
GCGAGAAA	-0.0304
CCAATGCA	-0.113
AGAGAAAC	-0.133
AAGGCGCA	-0.00185
CAATAGGC	-0.0919
AGTGCTAT	-0.164
CAATGAGG	-0.155
GGGGGGAA	-0.326
GAAAGATC	0.0837
CTGTATGC	-0.148
GAGGGGCA	-0.241
GAGTAACC	0.0918
GGAAGGTA	-0.12
CCGCTTGC	-0.0771
AACTGGAA	-0.121
CGCCTTCA	-0.3
GAGGAACC	-0.0481
AGTGTGTG	-0.0735
CATCAATC	0.096
CATGGTTC	0.0582
ATTGAGGC	-0.0187
CTTGTGAC	0.082

Sequence	PBM E-score
CCATACCA	-0.15
ATGGACCG	-0.167
ACGCACCT	0.0162
AATATGGA	-0.0361
ATACAGCC	-0.177
CACCCCGC	-0.155
ACTTGGCC	-0.0773
GGTCTTAC	-0.212
CAGGTTCC	-0.166
AGCTCAGA	-0.0805
AGATACCT	-0.0171
CTAGAAAG	-0.0726
GCGGTGTA	-0.141
AACGTGTA	-0.00361
AAAGACGG	0.185
CGACTTTA	-0.0475
TGAATGAA	-0.0107
GGGCAATA	-0.0147
ATATCAGC	0.00929
CTTTCTAC	0.185
CAGTGCGG	-0.103
CACTCAAA	0.162
CGGGCAGA	-0.0678
AGAAGACG	0.0438
GAACAACA	-0.0189

Sequence	PBM E-score
ATTACATA	0.156
AGATTACT	0.0193
CTAAACTC	-0.0785
TCATTACA	0.194
ATGATGAC	0.306
AATCAAAG	-0.0218
ACCGTGGC	0.0847
AATTAAAG	-8e-05
AGTCTATA	-0.12
CAGGGCTA	-0.201
AACACATG	-0.0328
CTCAGCAA	-0.0384
AACGAAGT	0.136
GACGGCGA	0.0475
ACATTCCG	0.0731
AAGCGAAA	-0.122
AGAACGCG	-0.0195
CCAGGAAA	0.0999
CGCGCGAA	0.073
CCTTCCTA	-0.311
ACCATCTG	-0.129
AGTTAAAG	0.0855
